Source: PubChem BioAssay AID1259308 (NCATS, 2017)

Test: 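Candidate targets for better recombinant protein yield in mammalian cells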 (primary screen)
Cell system: human HEK293 embryonic kidney cells stably expressing firefly luciferase (HEK-CMV-Luc2-Hygro)
Knock-down reagent: single siRNA against human genes, 0.8 pmol siRNA per well
Time to read-out: 72 h
Measured: 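Reporter luminescence and viable-cell signal on separate replicate plates, given as percent of non-targeting control and median/MAD z-scores, plus per-cell luciferase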
Scale: total luciferase, z-score and total luciferase, % of control: higher = more reporter protein produced
Call rule: 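An siRNA counts as active if its total luciferase robust z-score exceeds 3; genes with two or more such siRNAs out of three were retested with fresh siRNAs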
Meaning of the calls: active = raised luciferase; inactive = no rise
Shown is one part, drawn at random, of about 59,000 reagents. About 1,510 of them (2.6%) count as active. 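Calls use total luciferase alone and ignore viability, so some active siRNAs may act by altering cell number.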 Reagents against one gene are numbered here. Further read-outs or replicates are left out here.

LOC648934 #1 | total luciferase, z-score = 0.694; total luciferase, % of control = 95.7; Outcome = inactive
LOC648934 #2 | total luciferase, z-score = -2.07; total luciferase, % of control = 40.8; Outcome = inactive
LOC648934 #3 | total luciferase, z-score = -2.01; total luciferase, % of control = 41.9; Outcome = inactive
RPL38 #1 | total luciferase, z-score = -2.02; total luciferase, % of control = 41.8; Outcome = inactive
RPL38 #2 | total luciferase, z-score = -2.23; total luciferase, % of control = 37.4; Outcome = inactive
RPL38 #3 | total luciferase, z-score = -2.84; total luciferase, % of control = 25.3; Outcome = inactive
NKAIN3 #1 | total luciferase, z-score = -1.22; total luciferase, % of control = 57.6; Outcome = inactive
NKAIN3 #2 | total luciferase, z-score = -1.2; total luciferase, % of control = 58; Outcome = inactive
NKAIN3 #3 | total luciferase, z-score = 3.81; total luciferase, % of control = 158; Outcome = active
RBM26 #1 | total luciferase, z-score = 1.86; total luciferase, % of control = 119; Outcome = inactive
RBM26 #2 | total luciferase, z-score = -1.32; total luciferase, % of control = 55.7; Outcome = inactive
RBM26 #3 | total luciferase, z-score = 0.178; total luciferase, % of control = 85.4; Outcome = inactive

In a second layout: entries from further up
Gene,siRNA no.,"total luciferase, z-score","total luciferase, % of control",Outcome
RPL38,3,-2.84,25.3,inactive
NKAIN3,1,-1.22,57.6,inactive
NKAIN3,2,-1.2,58,inactive

Additional entries follow.
CMTM1 #1 | total luciferase, z-score = -0.301; total luciferase, % of control = 75.9; Outcome = inactive
CMTM1 #2 | total luciferase, z-score = 0.486; total luciferase, % of control = 91.5; Outcome = inactive
CMTM1 #3 | total luciferase, z-score = -1.18; total luciferase, % of control = 58.4; Outcome = inactive
UTP15 #1 | total luciferase, z-score = -1.47; total luciferase, % of control = 52.7; Outcome = inactive
UTP15 #2 | total luciferase, z-score = 0.524; total luciferase, % of control = 92.3; Outcome = inactive
UTP15 #3 | total luciferase, z-score = 0.464; total luciferase, % of control = 91.1; Outcome = inactive
METRNL #1 | total luciferase, z-score = 0.54; total luciferase, % of control = 92.6; Outcome = inactive
METRNL #2 | total luciferase, z-score = 1.84; total luciferase, % of control = 119; Outcome = inactive
METRNL #3 | total luciferase, z-score = 0.712; total luciferase, % of control = 96; Outcome = inactive
